{"source": "patent US8252334B2", "about": "“Dry powder pharmaceutical compositions comprising surfactants, hydrophobic active principles, and water-soluble excipients, process of preparing, and stable aqueous suspensions thereof” (Eratech S.r.l., priority 2004, dated 2012)", "assay": "Dry state particle size distribution (Sympatec Oasis light scattering, Rodos dry disperser)", "type": "physicochemical", "settings": "crystalline budesonide, FIG. 2", "note": "At least one compound was matched to its structure with a doubt left.", "data": [{"compound": "CCCC1O[C@@H]2C[C@H]3[C@@H]4CCC5=CC(=O)C=C[C@]5(C)[C@H]4[C@@H](O)C[C@]3(C)[C@]2(C(=O)CO)O1", "note": "(stereo partly shown) [budesonide]", "values": [{"measurement": "particle size of crystalline powder", "result": 1.59, "unit": "μm"}]}]}
